PubChem BioAssay AID1259425 | University of Nebraska Medical Center | 2018

Assay: 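Find knockdowns that reproduce the gene expression pattern seen when KSR1 is lost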 (primary screen)
Cells: HCT116 human colon cancer cells
Knock-down reagent: siRNA pool against human genes, 50 nM siRNA
Read-out: 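After 50 nM siRNA pool, branched-DNA assay measures six marker transcripts per well, minus blank, normalised to the geometric mean of two housekeeping transcripts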
Reading the numbers: BNIP3L mRNA: higher = more BNIP3L transcript after knockdown; NDRG1 mRNA: higher = more NDRG1 transcript after knockdown
The deposit covers about 14,000 reagents; this is an unselected part. Not all columns of the deposit are shown. Not given: the time to read-out.

What is on record for CAMKK2?
BNIP3L mRNA, set 1: 0.0717; NDRG1 mRNA, set 1: 0.0539

What did the screen give for CDC37?
BNIP3L mRNA, set 1: 0.097; NDRG1 mRNA, set 1: 0.169

For MYL3, what was measured?
BNIP3L mRNA, set 1: 0.0602; NDRG1 mRNA, set 1: 0.0788

What did the screen give for UCK1?
BNIP3L mRNA, set 1: 0.115; NDRG1 mRNA, set 1: 0.159

What did the screen give for SLC1A7?
BNIP3L mRNA, set 1: 0.11; NDRG1 mRNA, set 1: 0.799

How did the screen score KCNMB2?
BNIP3L mRNA, set 1: 0.149; NDRG1 mRNA, set 1: 0.175

With FGFBP1, what does the deposit list?
BNIP3L mRNA, set 1: 0.103; NDRG1 mRNA, set 1: 0.0915

Which result is listed for DRC11?
BNIP3L mRNA, set 1: 0.133; NDRG1 mRNA, set 1: 0.334

Which result is listed for DCPH1?
BNIP3L mRNA, set 1: 0.129; NDRG1 mRNA, set 1: 0.112

Which result is listed for ZNF629?
BNIP3L mRNA, set 1: 0.152; NDRG1 mRNA, set 1: 0.3

What is on record for COQ2?
BNIP3L mRNA, set 1: 0.19; NDRG1 mRNA, set 1: 0.239

With H1-3, what does the deposit list?
BNIP3L mRNA, set 1: 0.0769; NDRG1 mRNA, set 1: 0.0761

Individual results from above.
For “BNIP3L mRNA, set 1”, UCK1 shows 0.115
KCNMB2, NDRG1 mRNA, set 1 → 0.175
For “NDRG1 mRNA, set 1”, H1-3 shows 0.0761
Entry of ZNF629 under “NDRG1 mRNA, set 1”: 0.3

Next reagents:
With FAM222A, what does the deposit list?
BNIP3L mRNA, set 1: 0.174; NDRG1 mRNA, set 1: 0.343

What did the screen give for BAMBI?
BNIP3L mRNA, set 1: 0.182; NDRG1 mRNA, set 1: 0.274

Which result is listed for ALKBH7?
BNIP3L mRNA, set 1: 0.174; NDRG1 mRNA, set 1: 0.195

What did the screen give for MIEF1?
BNIP3L mRNA, set 1: 0.0758; NDRG1 mRNA, set 1: 0.144

How did the screen score EPN2?
BNIP3L mRNA, set 1: 0.175; NDRG1 mRNA, set 1: 0.168

With ARHGAP5, what does the deposit list?
BNIP3L mRNA, set 1: 0.0759; NDRG1 mRNA, set 1: 0.181

What did the screen give for AP5S1?
BNIP3L mRNA, set 1: 0.096; NDRG1 mRNA, set 1: 0.103

How did the screen score ZNF32?
BNIP3L mRNA, set 1: 0.206; NDRG1 mRNA, set 1: 0.19

For HSP90AB1, what does the deposit list?
BNIP3L mRNA, set 1: 0.0716; NDRG1 mRNA, set 1: 0.131

Which result is listed for DISP2?
BNIP3L mRNA, set 1: 0.0926; NDRG1 mRNA, set 1: 0.267

Which result is listed for SNX16?
BNIP3L mRNA, set 1: 0.123; NDRG1 mRNA, set 1: 0.542

What is on record for STX4?
BNIP3L mRNA, set 1: 0.15; NDRG1 mRNA, set 1: 0.416

What did the screen give for SMARCC2?
BNIP3L mRNA, set 1: 0.0734; NDRG1 mRNA, set 1: 0.0597

What is on record for CMIP?
BNIP3L mRNA, set 1: 0.0544; NDRG1 mRNA, set 1: 0.165

With ACIN1, how do the results read?
BNIP3L mRNA, set 1: 0.0954; NDRG1 mRNA, set 1: 0.133

What did the screen give for CCDC30?
BNIP3L mRNA, set 1: 0.0783; NDRG1 mRNA, set 1: 0.215

With ABTB1, what was measured?
BNIP3L mRNA, set 1: 0.143; NDRG1 mRNA, set 1: 0.0306

With HHIPL2, how do the results read?
BNIP3L mRNA, set 1: 0.0905; NDRG1 mRNA, set 1: 0.232

For PSMD5, what was measured?
BNIP3L mRNA, set 1: 0.108; NDRG1 mRNA, set 1: 0.23

With B3GNT4, what was measured?
BNIP3L mRNA, set 1: 0.108; NDRG1 mRNA, set 1: 0.213

For OR1D5, how do the results read?
BNIP3L mRNA, set 1: 0.088; NDRG1 mRNA, set 1: 0.358

What is on record for MMP11?
BNIP3L mRNA, set 1: 0.165; NDRG1 mRNA, set 1: 0.398

Which result is listed for NARS1?
BNIP3L mRNA, set 1: 0.111; NDRG1 mRNA, set 1: 0.361

What did the screen give for PAM?
BNIP3L mRNA, set 1: 0.13; NDRG1 mRNA, set 1: 0.135
